From US20240218030A1 come the findings set out here.

The assay addresses human transferrin receptor-Fc tag standard (human) (UniProt P02786). The experiment in a line: ELISA on plate-coated human TfR-Fc with anti-His detection.

No constants are given. Whether binding was seen depends on the method and setting. Some binding calls cover weakened binding; strength is not graded here.

B1: huHF_Mutant2-dual (designed binder)
chain: MTTASTSQVRQNYHAASEAAINAQINLELYASYVYLSMSYYFDRDDVALKNFAKYFLHQSHEEREHAEKLMKLQNQRGGRIALADIQKPDCDDGGSYGSLYAFDIWESGLNAMECALHLEKNVNQSLLALHALATAKNDPHLCDFIETHYLNEQVKAIKELGDHVTNLRKMGAPESGLAEYLFDKHTLGDSDNESMPSFITLASLSTWEGYFDF
In the case of B1, the binding entry is “binds”.
